In the supplement of paper PMC10849652:
This is one part of the list.

Chains of the proteins cited; added tags and fusions are not shown. Lines headed by an entry give the natural chain unless they say otherwise; changes in a name come on top.
UniProt Q12800: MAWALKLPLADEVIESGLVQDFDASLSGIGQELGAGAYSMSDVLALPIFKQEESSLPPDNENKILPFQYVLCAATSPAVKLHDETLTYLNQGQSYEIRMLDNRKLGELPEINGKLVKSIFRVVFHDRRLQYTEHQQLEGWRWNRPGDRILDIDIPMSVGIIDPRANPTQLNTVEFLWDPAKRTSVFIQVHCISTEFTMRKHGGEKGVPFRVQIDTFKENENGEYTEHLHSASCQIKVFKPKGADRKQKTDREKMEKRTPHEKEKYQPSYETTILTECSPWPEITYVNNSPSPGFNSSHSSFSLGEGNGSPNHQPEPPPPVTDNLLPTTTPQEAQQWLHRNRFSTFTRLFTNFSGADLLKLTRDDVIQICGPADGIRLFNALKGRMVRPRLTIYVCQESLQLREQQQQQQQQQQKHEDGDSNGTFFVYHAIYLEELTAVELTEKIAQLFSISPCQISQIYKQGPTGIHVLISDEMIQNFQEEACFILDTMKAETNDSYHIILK
UniProt Q13428: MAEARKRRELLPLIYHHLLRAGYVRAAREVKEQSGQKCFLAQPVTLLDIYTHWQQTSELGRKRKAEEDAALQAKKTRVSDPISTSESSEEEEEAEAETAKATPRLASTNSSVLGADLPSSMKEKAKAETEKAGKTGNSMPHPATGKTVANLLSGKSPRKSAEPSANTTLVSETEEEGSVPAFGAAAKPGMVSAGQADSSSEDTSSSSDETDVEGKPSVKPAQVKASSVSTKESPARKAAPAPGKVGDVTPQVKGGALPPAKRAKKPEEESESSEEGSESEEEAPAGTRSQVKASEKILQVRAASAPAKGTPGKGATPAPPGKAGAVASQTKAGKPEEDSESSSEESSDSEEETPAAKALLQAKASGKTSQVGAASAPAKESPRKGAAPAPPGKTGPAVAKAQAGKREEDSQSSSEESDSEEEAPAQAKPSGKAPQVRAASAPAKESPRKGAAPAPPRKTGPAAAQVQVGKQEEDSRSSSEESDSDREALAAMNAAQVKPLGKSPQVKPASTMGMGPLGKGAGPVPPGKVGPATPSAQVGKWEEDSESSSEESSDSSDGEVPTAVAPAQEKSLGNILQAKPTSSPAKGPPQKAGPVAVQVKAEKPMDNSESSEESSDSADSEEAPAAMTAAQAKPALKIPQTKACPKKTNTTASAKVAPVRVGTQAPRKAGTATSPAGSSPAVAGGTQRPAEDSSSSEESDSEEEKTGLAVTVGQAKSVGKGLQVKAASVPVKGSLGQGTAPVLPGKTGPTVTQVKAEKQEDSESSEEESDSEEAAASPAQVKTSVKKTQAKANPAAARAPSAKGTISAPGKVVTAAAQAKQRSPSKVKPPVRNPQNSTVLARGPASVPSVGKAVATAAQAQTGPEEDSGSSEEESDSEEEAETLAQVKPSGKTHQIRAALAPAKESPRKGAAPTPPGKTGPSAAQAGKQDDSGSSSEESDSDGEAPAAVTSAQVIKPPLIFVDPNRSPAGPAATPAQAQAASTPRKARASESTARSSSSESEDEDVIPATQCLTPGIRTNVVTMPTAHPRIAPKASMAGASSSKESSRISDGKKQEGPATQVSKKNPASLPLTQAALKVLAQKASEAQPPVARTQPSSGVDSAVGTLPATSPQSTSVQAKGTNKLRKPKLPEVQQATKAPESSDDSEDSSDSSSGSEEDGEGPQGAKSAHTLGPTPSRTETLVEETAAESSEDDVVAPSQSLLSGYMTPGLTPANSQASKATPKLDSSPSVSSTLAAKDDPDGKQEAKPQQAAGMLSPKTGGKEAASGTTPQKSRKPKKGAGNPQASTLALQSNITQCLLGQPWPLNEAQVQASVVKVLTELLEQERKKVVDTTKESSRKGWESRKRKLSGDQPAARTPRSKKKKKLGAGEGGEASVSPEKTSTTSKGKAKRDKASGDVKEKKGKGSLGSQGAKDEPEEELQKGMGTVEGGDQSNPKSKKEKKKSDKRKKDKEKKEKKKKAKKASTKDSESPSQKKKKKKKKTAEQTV
UniProt Q15170: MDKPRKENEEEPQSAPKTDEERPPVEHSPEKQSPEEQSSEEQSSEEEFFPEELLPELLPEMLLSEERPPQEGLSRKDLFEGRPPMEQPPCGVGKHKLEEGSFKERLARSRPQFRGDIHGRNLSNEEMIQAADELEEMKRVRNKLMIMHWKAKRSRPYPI
UniProt Q9NXF1: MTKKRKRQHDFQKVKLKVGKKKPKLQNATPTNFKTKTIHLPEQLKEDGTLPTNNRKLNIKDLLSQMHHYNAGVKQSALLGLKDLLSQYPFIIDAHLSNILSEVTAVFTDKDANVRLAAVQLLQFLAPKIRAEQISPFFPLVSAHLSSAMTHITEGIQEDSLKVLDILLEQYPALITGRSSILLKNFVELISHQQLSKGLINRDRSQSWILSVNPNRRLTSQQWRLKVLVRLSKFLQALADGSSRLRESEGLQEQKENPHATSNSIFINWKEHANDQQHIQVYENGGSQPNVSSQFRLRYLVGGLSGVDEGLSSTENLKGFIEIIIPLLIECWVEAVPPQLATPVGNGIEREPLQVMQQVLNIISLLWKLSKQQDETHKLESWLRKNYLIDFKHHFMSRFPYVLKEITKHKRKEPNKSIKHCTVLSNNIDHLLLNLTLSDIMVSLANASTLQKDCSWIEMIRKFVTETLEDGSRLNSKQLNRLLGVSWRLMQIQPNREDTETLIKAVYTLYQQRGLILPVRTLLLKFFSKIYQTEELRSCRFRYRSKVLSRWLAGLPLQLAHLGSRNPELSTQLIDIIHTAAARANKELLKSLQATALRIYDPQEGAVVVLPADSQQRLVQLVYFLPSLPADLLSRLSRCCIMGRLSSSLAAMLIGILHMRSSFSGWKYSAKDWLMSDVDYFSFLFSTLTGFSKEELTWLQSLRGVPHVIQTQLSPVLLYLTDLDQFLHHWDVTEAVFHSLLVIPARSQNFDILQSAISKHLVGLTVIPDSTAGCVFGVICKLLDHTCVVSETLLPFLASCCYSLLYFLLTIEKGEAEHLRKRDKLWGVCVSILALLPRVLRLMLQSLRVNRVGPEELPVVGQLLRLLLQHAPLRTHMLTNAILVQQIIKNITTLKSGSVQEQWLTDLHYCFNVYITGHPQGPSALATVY
UniProt P20226, whole entry, looked up: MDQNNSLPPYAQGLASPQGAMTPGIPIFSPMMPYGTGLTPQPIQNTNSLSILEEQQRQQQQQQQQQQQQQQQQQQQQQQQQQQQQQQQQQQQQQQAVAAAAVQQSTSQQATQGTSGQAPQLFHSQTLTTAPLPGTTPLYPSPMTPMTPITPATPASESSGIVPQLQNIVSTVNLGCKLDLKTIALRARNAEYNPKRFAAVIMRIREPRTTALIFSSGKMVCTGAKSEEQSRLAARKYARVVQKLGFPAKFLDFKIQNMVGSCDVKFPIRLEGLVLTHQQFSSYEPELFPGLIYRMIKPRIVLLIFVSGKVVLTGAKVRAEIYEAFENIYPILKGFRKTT
UniProt Q9BQ70: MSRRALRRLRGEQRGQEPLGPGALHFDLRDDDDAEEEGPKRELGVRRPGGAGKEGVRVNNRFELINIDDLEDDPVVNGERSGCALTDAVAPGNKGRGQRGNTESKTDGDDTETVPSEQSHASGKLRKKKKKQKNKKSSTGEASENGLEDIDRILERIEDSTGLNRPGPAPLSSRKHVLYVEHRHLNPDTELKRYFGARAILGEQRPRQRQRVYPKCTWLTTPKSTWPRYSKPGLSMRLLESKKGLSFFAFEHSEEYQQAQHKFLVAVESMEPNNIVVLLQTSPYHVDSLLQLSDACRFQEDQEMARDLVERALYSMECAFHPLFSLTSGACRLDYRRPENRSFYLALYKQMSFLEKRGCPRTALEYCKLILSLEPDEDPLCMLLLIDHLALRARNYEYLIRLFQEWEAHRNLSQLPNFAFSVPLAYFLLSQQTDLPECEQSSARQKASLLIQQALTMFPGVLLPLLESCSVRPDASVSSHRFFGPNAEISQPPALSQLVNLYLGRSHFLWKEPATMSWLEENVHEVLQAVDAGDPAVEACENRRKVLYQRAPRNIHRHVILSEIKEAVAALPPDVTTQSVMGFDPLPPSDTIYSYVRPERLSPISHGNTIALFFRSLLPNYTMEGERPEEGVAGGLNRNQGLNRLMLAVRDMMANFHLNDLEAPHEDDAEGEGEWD
UniProt Q9BYX2: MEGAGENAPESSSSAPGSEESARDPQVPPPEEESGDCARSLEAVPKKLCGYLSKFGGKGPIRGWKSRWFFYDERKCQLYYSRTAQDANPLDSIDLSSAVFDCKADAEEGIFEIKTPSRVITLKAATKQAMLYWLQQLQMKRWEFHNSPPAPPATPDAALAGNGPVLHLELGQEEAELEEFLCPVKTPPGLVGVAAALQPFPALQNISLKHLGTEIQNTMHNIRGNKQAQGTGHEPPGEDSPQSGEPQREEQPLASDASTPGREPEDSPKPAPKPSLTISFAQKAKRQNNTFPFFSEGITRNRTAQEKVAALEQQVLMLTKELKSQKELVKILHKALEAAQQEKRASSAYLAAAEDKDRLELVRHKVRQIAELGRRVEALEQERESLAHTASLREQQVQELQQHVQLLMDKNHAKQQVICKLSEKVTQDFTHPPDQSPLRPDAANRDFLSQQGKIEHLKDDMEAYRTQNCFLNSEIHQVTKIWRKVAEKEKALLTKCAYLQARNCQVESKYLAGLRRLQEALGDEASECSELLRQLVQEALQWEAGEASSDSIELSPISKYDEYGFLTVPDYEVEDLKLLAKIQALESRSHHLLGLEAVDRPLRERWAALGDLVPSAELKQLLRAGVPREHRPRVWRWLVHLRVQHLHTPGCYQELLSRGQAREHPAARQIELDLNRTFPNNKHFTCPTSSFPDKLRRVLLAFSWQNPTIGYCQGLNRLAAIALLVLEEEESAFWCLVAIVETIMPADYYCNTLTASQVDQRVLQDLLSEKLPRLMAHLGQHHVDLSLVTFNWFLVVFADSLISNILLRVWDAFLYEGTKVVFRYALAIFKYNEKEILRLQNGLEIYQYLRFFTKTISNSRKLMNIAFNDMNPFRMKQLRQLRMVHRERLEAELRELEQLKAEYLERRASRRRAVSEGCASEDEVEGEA
UniProt Q9BU02: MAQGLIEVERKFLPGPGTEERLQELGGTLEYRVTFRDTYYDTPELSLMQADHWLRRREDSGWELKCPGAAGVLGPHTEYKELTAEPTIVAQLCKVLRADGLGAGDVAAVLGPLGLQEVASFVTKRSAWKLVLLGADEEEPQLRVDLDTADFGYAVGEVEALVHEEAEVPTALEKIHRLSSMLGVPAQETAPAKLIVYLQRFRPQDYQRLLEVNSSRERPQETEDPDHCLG
UniProt Q8NHU6: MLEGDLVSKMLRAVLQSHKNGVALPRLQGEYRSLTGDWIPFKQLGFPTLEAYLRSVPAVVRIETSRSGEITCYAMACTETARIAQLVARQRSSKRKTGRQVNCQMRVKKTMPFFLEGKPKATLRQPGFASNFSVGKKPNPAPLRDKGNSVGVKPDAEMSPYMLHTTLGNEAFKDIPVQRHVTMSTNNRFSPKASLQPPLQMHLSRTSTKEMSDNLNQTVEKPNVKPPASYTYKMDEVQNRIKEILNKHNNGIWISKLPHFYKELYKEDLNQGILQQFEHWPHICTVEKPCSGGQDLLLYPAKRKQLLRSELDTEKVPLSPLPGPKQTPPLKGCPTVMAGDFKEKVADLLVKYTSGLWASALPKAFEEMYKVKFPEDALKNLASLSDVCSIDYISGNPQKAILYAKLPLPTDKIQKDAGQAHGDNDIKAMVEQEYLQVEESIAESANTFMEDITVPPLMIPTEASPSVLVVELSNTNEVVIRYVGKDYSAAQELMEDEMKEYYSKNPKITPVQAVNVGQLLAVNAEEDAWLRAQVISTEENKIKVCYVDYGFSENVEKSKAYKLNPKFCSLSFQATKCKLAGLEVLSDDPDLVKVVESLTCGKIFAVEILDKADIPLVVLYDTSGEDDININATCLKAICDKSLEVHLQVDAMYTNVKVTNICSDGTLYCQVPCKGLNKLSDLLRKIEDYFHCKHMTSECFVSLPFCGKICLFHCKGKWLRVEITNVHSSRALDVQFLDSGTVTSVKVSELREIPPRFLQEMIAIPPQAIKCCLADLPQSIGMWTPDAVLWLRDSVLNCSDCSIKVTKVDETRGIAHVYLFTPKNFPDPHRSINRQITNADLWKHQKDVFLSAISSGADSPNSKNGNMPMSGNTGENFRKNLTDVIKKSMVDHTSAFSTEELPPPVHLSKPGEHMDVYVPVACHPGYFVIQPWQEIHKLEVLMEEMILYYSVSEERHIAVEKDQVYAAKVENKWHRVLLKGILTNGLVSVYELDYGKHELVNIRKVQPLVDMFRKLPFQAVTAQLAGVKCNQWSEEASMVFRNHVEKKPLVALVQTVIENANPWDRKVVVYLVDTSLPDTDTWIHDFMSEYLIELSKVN
UniProt Q5JUR7: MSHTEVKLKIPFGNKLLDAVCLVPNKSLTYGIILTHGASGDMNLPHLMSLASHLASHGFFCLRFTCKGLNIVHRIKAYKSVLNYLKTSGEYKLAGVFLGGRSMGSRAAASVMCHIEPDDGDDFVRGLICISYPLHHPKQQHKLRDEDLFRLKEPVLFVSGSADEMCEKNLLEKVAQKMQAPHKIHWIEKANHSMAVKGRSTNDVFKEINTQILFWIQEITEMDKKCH

What follows are targets tested with NC(=O)Nc1cc(-c2cccc(F)c2)sc1C(=O)N[C@H]1CCCNC1 (assay: log2 fold change, soluble protein after heating vs DMSO (PISA); higher = thermal stabilisation; K562 cells, 10 uM, 30 min; active = over 0.2 and 3.5 SD of the protein, either way, in both replicates (recomputed)).
How it was run: (§1)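 K562 cells (2×10^6 cells/mL) were treated with 10 μM compound for 30 min, and aliquots were heated for 3 min over 48°C-58°C. Pooled aliquots were extracted in PBS with 0.5% NP-40 at 4°C, and the supernatant after 21,000xg for 90 min was measured by TMTpro 16plex LC-MS/MS with channel sums equalised. Reported thermal stability, relative to control samples and from duplicates, is a log2 fold change.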

Target	log2 fold change
TIFA (UniProt Q96CG3)	inactive: -0.062
TFE3 (UniProt P19532)	inactive: 0.119
TBC1D7 (UniProt Q9P0N9)	inactive: -0.218
TFCP2 (UniProt Q12800)	inactive: 0.152
TCOF1 isoform 3 (UniProt Q13428)	inactive: 0.283
TCTN3 (UniProt Q6NUS6)	inactive: -0.133
TCEAL1 isoform 2 (UniProt Q15170)	inactive: -0.038
TCEAL9 (UniProt Q9UHQ7)	inactive: -0.073
TEX10 (UniProt Q9NXF1)	inactive: 0.222

What follows are targets tested with NC(=O)c1cnc(N[C@@H]2CCCC[C@@H]2N)nc1Nc1cccc(-n2nccn2)c1 in the same assay as above.
How it was run: as §1

Target	log2 fold change
TBP (UniProt P20226)	inactive: 0.095
TC2N (UniProt Q8N9U0)	inactive: 0.015
TBCK (UniProt Q8TEA7)	inactive: -0.176
TCF25 (UniProt Q9BQ70)	inactive: 0.083
TBC1D2 (UniProt Q9BYX2)	inactive: -0.078
TCIRG1 (UniProt Q13488)	inactive: -0.338
THTPA (UniProt Q9BU02)	inactive: 0.039
TEDC2 (UniProt Q7L2K0)	inactive: 0.059
TGM2 (UniProt A2A299)	inactive: -0.153
TDRD7 (UniProt Q8NHU6)	inactive: -0.645
TCF3 isoform 2 (UniProt P15923)	inactive: -0.033
THAP9 (UniProt Q9H5L6)	inactive: 0.021
TCP11L1 (UniProt Q9NUJ3)	inactive: -0.454
TEX30 (UniProt Q5JUR7)	inactive: -0.101

Each target was assayed with NC1(c2ccc(-c3nc4ccn5c(=O)[nH]nc5c4cc3-c3ccccc3)cc2)CCC1 in the same assay as above.
How it was run: as §1

Target	log2 fold change
TBP (UniProt P20226)	inactive: 0.015
TC2N (UniProt Q8N9U0)	inactive: -0.067
TCEAL8 (UniProt Q8IYN2)	inactive: 0.178
TCF25 (UniProt Q9BQ70)	inactive: 0.096
TBC1D2 (UniProt Q9BYX2)	inactive: -0.181
TET2 (UniProt Q6N021)	inactive: 0.557
THTPA (UniProt Q9BU02)	inactive: -0.051
TGM2 (UniProt A2A299)	inactive: 0.03
TDRD7 (UniProt Q8NHU6)	inactive: -0.135
TDRD3 isoform 3 (UniProt Q9H7E2)	inactive: 0.022
THAP9 (UniProt Q9H5L6)	inactive: 0.024
TCP11L1 (UniProt Q9NUJ3)	inactive: -0.23
TEX30 (UniProt Q5JUR7)	inactive: -0.097

Each target was assayed with NCC(=O)Nc1ccc(-n2nc(C(F)(F)F)cc2-c2ccc3c(ccc4ccccc43)c2)cc1 in the same assay as above.
How it was run: as §1

Target	log2 fold change
TBP (UniProt P20226)	inactive: 0.033
TIFA (UniProt Q96CG3)	inactive: 0.158
TC2N (UniProt Q8N9U0)	inactive: -0.13
TBC1D9 (UniProt Q6ZT07)	inactive: 0.008
TBC1D25 (UniProt Q3MII6)	inactive: -0.14
TCF25 (UniProt Q9BQ70)	inactive: 0.153
TFAP4 (UniProt Q01664)	inactive: -0.005
THTPA (UniProt Q9BU02)	inactive: -0.009
TCEAL1 isoform 2 (UniProt Q15170)	inactive: 0.268
TGM2 (UniProt A2A299)	inactive: -0.323
TDRD7 (UniProt Q8NHU6)	inactive: -0.114
TDRD3 isoform 3 (UniProt Q9H7E2)	inactive: 0.135
TCEAL4 isoform 2 (UniProt Q96EI5)	inactive: 0.175
TCF3 isoform 2 (UniProt P15923)	inactive: -0.035
TEX30 (UniProt Q5JUR7)	inactive: -0.1

What follows are targets tested with Nc1ccccc1NC(=O)c1ccc(CNC(=O)OCc2cccnc2)cc1 [entinostat] in the same assay as above.
How it was run: as §1

Target	log2 fold change
TIFA (UniProt Q96CG3)	inactive: -0.093
TFE3 (UniProt P19532)	inactive: 0.131
TBC1D7 (UniProt Q9P0N9)	inactive: -0.012
TFCP2 (UniProt Q12800)	inactive: -0.127
TCOF1 isoform 3 (UniProt Q13428)	inactive: 0.008
TCTN3 (UniProt Q6NUS6)	inactive: -0.072
TCEAL1 isoform 2 (UniProt Q15170)	inactive: 0.046
TCEAL9 (UniProt Q9UHQ7)	inactive: 0.201
TEX10 (UniProt Q9NXF1)	inactive: -0.179

The targets below were run with O=C(CCCCCCC(=O)Nc1ccccc1)NO [vorinostat] in the same assay as above.
How it was run: as §1

Target	log2 fold change
TENM4 (UniProt Q6N022)	inactive: 0.123
THEMIS2 (UniProt Q5TEJ8)	inactive: 0.071
TIFA (UniProt Q96CG3)	inactive: -0.024
TBCK (UniProt Q8TEA7)	inactive: -0.126
TCEAL8 (UniProt Q8IYN2)	inactive: 0.399
TCF25 (UniProt Q9BQ70)	inactive: 0.133
TBC1D2 (UniProt Q9BYX2)	inactive: -0.022
TIGAR (UniProt Q9NQ88)	inactive: 0.081
TCIRG1 (UniProt Q13488)	inactive: 0.001
TFCP2 (UniProt Q12800)	inactive: 0.015
TFAP4 (UniProt Q01664)	inactive: 0.044
TCOF1 isoform 3 (UniProt Q13428)	inactive: 0.205
TCEAL1 isoform 2 (UniProt Q15170)	inactive: -0.091
TDRD7 (UniProt Q8NHU6)	inactive: -0.09
THAP12 (UniProt O43422)	inactive: -0.2
TCEAL4 isoform 2 (UniProt Q96EI5)	inactive: -0.119
TCF3 isoform 2 (UniProt P15923)	inactive: 0.036
TCF20 (UniProt Q9UGU0)	inactive: 0.098
TCF4 isoform 3 (UniProt P15884)	inactive: -0.028
TEX30 (UniProt Q5JUR7)	inactive: 0.121
TEX10 (UniProt Q9NXF1)	inactive: 0.025
